Experimental data published in paper PMC10995623, “Apple E3 ligase MdPUB23 mediates ubiquitin-dependent degradation of MdABI5 to delay ABA-triggered leaf senescence”.
The exact form of at least one protein or probe is not confirmed.

System: MdbHLH93
Experiment: EMSA
Details: 24 C, 30 min, Beyotime EMSA/Gel-Shift Kit binding buffer (composition, salt and pH not given), biotin-labelled probe, recombinant protein, label: biotin

Does “GGGGGGGGTCCACGTGGGTCACCAAC (double strand) [MdSAG18 promoter probe]” bind?
Result: binds

Does “GGGGGGGGTCCACGTGGGTCACCAAC (double strand) [MdSAG18 promoter probe]” bind (plus increasing MdABI5 (interaction partner): binding gradually enhanced)?
Result: binds
